The whole screen tested about 300,000 compounds, of which about 5,400 (1.8%) were called active. The inconclusive results got no clear call from the source; some entries with a clear call stand among them for comparison. The call rests on the fitted dose curve; tested in HEK293 cells. Where the call is inconclusive, the potency comes from a doubtful curve fit.
Experiment: qHTS for inhibitors of binding or entry into cells for Marburg Virus
Settings: Marburg virus pseudotyped entry inhibition, cell reporter; activity change, negative = inhibition: at 37.8 µM (top of the series) unless noted
In the case of `COc1ccc(NC(=O)N(CCCN(C)C)Cc2cc3cc(OC)ccc3[nH]c2=O)cc1`, the Potency is reported as inconclusive: 32.6 µM [inhibitor, single point].
With `O=C(NN=C1CCCCCCC1)c1ccc2ccccc2n1` the Potency was inconclusive: 6.31 µM [activator, full curve, poor fit].
With `O=C(Nc1ccc2c(c1)CCC2)C1CCCO1` (stereo not drawn) the Potency was inconclusive: 20.6 µM [activator, partial curve, poor fit].
With `Cc1ccsc1CNC12CC3CC(CC(C3)C1)C2` the Potency was inconclusive: 35.5 µM [inhibitor, single point].
With `Cc1cccc(NC(=O)c2cccc(S(=O)(=O)NCc3ccccc3)c2)n1` the “activity change, negative = inhibition” value was inactive: -11.3%.
In the case of `Cc1cc(C(=O)CN2C(=O)C3CC=CCC3C2=O)c(C)n1-c1ccccc1` (stereo not drawn), the Potency is reported as inconclusive: 29.1 µM [inhibitor, single point].
In the case of `COc1cc(Cl)c(C)cc1NC(=O)c1nn(C)c2c1CSc1ccccc1-2`, the “activity change, negative = inhibition” value is reported as inactive: 0.76% [at 46.1 µM].
In the case of `O=C(N/N=C/c1ccc(O)c(O)c1)NC12CC3CC(CC(C3)C1)C2`, the Potency is reported as inconclusive: 11.2 µM [inhibitor, partial curve, poor fit].
For `CCCCCn1c(=O)c(C(=O)NCc2ccco2)c(O)c2ccccc21`, the “activity change, negative = inhibition” value was inactive: -4.56% [at 46.1 µM].
For `CCCn1c(SCC(=O)Nc2cccc(S(=O)(=O)N(C)C)c2)nc2ccccc2c1=O`, the Potency was active: 11.2 µM.
With `O=C(NCc1cccnc1)c1cc(Sc2ccccc2Cl)nc2ccccc12` the Potency was inconclusive: 16.4 µM [inhibitor, partial curve].
For `Cc1ccc2nc(SCc3nnc(-c4cccs4)o3)[nH]c2c1`, the Potency was inconclusive: 14.1 µM [activator, partial curve, poor fit].
In the case of `Cc1ccccc1C(=O)n1nc(-c2ccco2)nc1NCc1cccs1`, the “activity change, negative = inhibition” value is reported as inactive: 11.9% [at 46.1 µM].
For `O=C(NC1CCCCC1)C(c1ccc2ncccc2c1)N(Cc1ccc2c(c1)OCO2)C(=O)c1cccs1` (stereo not drawn), the “activity change, negative = inhibition” value was inactive: -27%.
For `Cc1ccc(C(=O)N(CCCN(C)C)c2nc3ccc(Cl)cc3s2)cc1C`, the Potency was active: 8.91 µM.
With `Cc1ccc(S(=O)(=O)CCC(=O)OCC(=O)NCCc2ccc(F)cc2)cc1` the Potency was inconclusive: 11.2 µM [activator, single point].
With `CCOC(=O)c1cccc(NC(=O)CN2CCN(c3ccc(OC)cc3)CC2)c1` the “activity change, negative = inhibition” value was inactive: -11.5%.
In the case of `COc1ccc(C2CC(=O)N(CC(=O)Nc3ccc(C(C)=O)cc3)c3ccccc3S2)cc1OC` (stereo not drawn), the Potency is reported as inconclusive: 25.1 µM [inhibitor, single point].
In the case of `CC(=O)OCC(=O)C1=CCC2C3CCC4=CC(=O)C=CC4(C)C3(F)C(OC(C)=O)CC12C` (stereo not drawn), the Potency is reported as inconclusive: 6.31 µM [inhibitor, single point].
In the case of `O=C(Nc1ccc(Cl)cc1C(F)(F)F)C(Sc1nnc(-c2cccs2)o1)c1ccccc1` (stereo not drawn), the Potency is reported as inconclusive: 6.31 µM [inhibitor, single point].
In the case of `CC(=O)C1=C(O)C(=O)N(CCCn2ccnc2)C1c1ccc(Br)cc1` (stereo not drawn), the Potency is reported as inconclusive: 4.47 µM [activator, single point].
With `O=C1c2ccccc2NC(c2ccccn2)N1c1ccc(Cl)cc1` (stereo not drawn) the “activity change, negative = inhibition” value was inactive: 2.65%.
With `COC(=O)c1ccc(NC(=O)Nc2ccc(F)cc2F)cc1` the Potency was inconclusive: 5.62 µM [activator, single point].
For `CC#C[C@]1(O)CC[C@H]2[C@@H]3CCC4=CC(=O)CCC4=C3[C@@H](c3ccc(N(C)C)cc3)C[C@@]21C`, the Potency was active: 10 µM.
For `Cc1ccc(N=C2SC(C(=O)O)CC(=O)N2C)cc1C` (stereo not drawn), the “activity change, negative = inhibition” value was inactive: 14% [at 46.1 µM].
With `Cc1c(/C=N/n2cnnc2)c2ccccc2n1CCOc1ccccc1` the Potency was inconclusive: 3.55 µM [inhibitor, partial curve, poor fit].
For `O=S(=O)(c1ccc(Oc2ccc(Br)cc2)cc1)N1CCOCC1`, the Potency was inconclusive: 12.6 µM [inhibitor, single point].
In the case of `COc1cc(C(=O)NCC(c2ccco2)N2CCc3ccccc32)cc(OC)c1OC` (stereo not drawn), the Potency is reported as inconclusive: 15.8 µM [inhibitor, single point].
With `COc1ccc(Oc2nc(-c3ccccc3)ncc2S(=O)(=O)c2ccccc2)cc1` the “activity change, negative = inhibition” value was inactive: 0.161% [at 46.1 µM].
For `CN(CCc1ccccn1)C1CCCN(S(=O)(=O)c2ccccc2Cl)C1` (stereo not drawn), the Potency was inconclusive: 1.41 µM [inhibitor, full curve, poor fit].
In the case of `Cc1ccc(C(=O)N/C(=C/c2ccc(-c3ccc([N+](=O)[O-])cc3)o2)C(=O)NCCCN(C)C)cc1`, the Potency is reported as active: 3.98 µM.
For `CNC(=S)NCCN1CCOCC1`, the Potency was inconclusive: 35.5 µM [activator, single point].
In the case of `CCCc1cc(-c2n[nH]c(=S)n2CC)cs1`, the Potency is reported as inconclusive: 0.794 µM [inhibitor, full curve, poor fit].
With `O=C(NCCc1ccccc1)c1c[nH]c2c(F)cccc2c1=O` the “activity change, negative = inhibition” value was inactive: -7.94%.
With `CC1=Nc2cc(C(=O)N3CCCCC3)ccc2Sc2ccc(C)cc21` the Potency was “inactive”.
With `CC1(C)CC2CC(C)(CN2S(=O)(=O)c2ccc(C(=O)Nc3ccc(S(=O)(=O)N4CCOCC4)cc3)cc2)C1` (stereo not drawn) the Potency was active: 2.82 µM.
In the case of `Cc1cc(=O)n2[nH]c(NC(=O)c3cccc(Cl)c3)nc2n1`, the Potency is reported as inconclusive: 20 µM [activator, partial curve, poor fit].
For `Cc1cc(C)n(CCc2nc(-c3ccc(F)cc3)cs2)n1`, the “activity change, negative = inhibition” value was inactive: 12.7% [at 46.1 µM].
In the case of `CC(Cc1ccccc1)NC(=O)Cc1ccc(N(C)C)cc1` (stereo not drawn), the Potency is reported as inconclusive: 3.16 µM [activator, single point].
For `COCCCNC(=S)Nc1ccc(N2CCCCC2)cc1`, the Potency was inconclusive: 12.6 µM [activator, single point].
For `CC(CCC(=O)OC[C@H]1O[C@H](C#Cc2ccccc2)C=C[C@H]1Oc1ccc(C)cc1)=NO[C@H](C)c1cn([C@H](CO)Cc2ccccc2)nn1`, the Potency was inconclusive: 0.266 µM [activator, full curve, poor fit].
For `CCC(=O)n1nc(-c2ccc(OC)cc2)nc1NCc1cccs1`, the Potency was inconclusive: 12.6 µM [activator, partial curve].
For `CCOC(=O)N/N=C1\C[C@@H](O)[C@@H](O)[C@@H]2[C@@H]3C(=O)N(c4ccc(F)cc4F)C(=O)[C@@H]3CC[C@@H]12`, the “activity change, negative = inhibition” value was inactive: -21.5% [at 14.2 µM].
In the case of `COc1ccccc1N(C)S(=O)(=O)c1ccc(C(=O)N(C)Cc2ccc(Cl)s2)cc1`, the Potency is reported as inconclusive: 20 µM [inhibitor, partial curve, poor fit].
With `CN(Cc1ccsc1)C(=O)CCc1nnc(Cc2c[nH]c3ccccc23)o1` the Potency was inconclusive: 0.562 µM [activator, partial curve, poor fit].
For `COc1ccc(CNC(=O)Cn2ncc3c(=O)oc4ccc(C)cc4c32)c(OC)c1`, the “activity change, negative = inhibition” value was inactive: 6.32% [at 46.1 µM].
In the case of `CCCCn1c(N)c(N(CCC(C)C)C(=O)C2=COCCO2)c(=O)[nH]c1=O`, the “activity change, negative = inhibition” value is reported as inactive: 17.2%.
For `CCC(C)c1ccccc1N1CC(C(=O)NCCc2ccc(OC)c(OC)c2)CC1=O` (stereo not drawn), the Potency was inconclusive: 20 µM [inhibitor, partial curve, poor fit].
With `CCOC(=O)c1c(C)[nH]c(C(=O)COC(=O)c2oc3ccccc3c2C)c1C` the Potency was inconclusive: 6.51 µM [inhibitor, full curve].
For `O=C(COc1ccccc1/C=C\c1nc(O)c([N+](=O)[O-])c(=O)[nH]1)Nc1ccccc1`, the Potency was inconclusive: 11.2 µM [activator, partial curve, poor fit].
With `CCN(CC)c1c([N+](=O)[O-])c(=O)n(C)c2ccccc12` the Potency was inconclusive: 1.12 µM [activator, partial curve, poor fit].
For `COc1ccccc1C(=O)Nc1ccnn1C1CCN(C/C=C/c2ccc(F)cc2)CC1`, the Potency was inconclusive: 8.91 µM [inhibitor, partial curve, poor fit].
For `Cc1ccc(C(=O)N2CCN3C(=O)c4ccccc4C23c2ccc(Cl)cc2)cc1` (stereo not drawn), the Potency was inconclusive: 20 µM [inhibitor, single point].
For `CCCc1nc2ccccc2c(C(=O)OCC(=O)Nc2cccc(S(=O)(=O)N3CCOCC3)c2)c1CC`, the Potency was inconclusive: 25.9 µM [inhibitor, partial curve, poor fit].
With `CC(=O)c1c(C)oc2ccc(NS(=O)(=O)c3cccs3)cc12` the Potency was inconclusive: 11.2 µM [inhibitor, partial curve, poor fit].
With `O=C1C=CC(=O)N1c1cccc(-c2ccccc2)c1` the “activity change, negative = inhibition” value was inactive: -3.88%.
In the case of `CCCCN=c1sc(C(=O)OC)cc(=O)n1CCCC`, the “activity change, negative = inhibition” value is reported as inactive: -19.4%.
With `CC(C)C1Cc2nc(Cl)c(C#N)cc2CO1` (stereo not drawn) the Potency was inconclusive: 3.98 µM [inhibitor, single point].
In the case of `Nc1cccc(N=[N+]([O-])c2cccc(N)c2)c1`, the Potency is reported as inconclusive: 3.55 µM [activator, single point].
In the case of `OC(CNCc1cccc(Cl)c1)c1ccccc1` (stereo not drawn), the Potency is reported as inconclusive: 35.5 µM [inhibitor, single point].
In the case of `O=C(c1cc(N2CCOCC2)c(F)cc1[N+](=O)[O-])N1CCOCC1`, the “activity change, negative = inhibition” value is reported as inactive: 2.29%.
With `Cc1cc(C)nc(SCc2nc3ccccc3n2C)n1` the “activity change, negative = inhibition” value was inactive: -9.59% [at 46.1 µM].
With `CC(C)(C)c1ccc(NC(=O)c2ccsc2)cc1` the Potency was inconclusive: 7.08 µM [inhibitor, partial curve, poor fit].
For `Cc1ccc(S(=O)(=O)c2ccc(Cl)cc2)cc1S(=O)(=O)NC(C)C(=O)O` (stereo not drawn), the Potency was inconclusive: 12.6 µM [activator, partial curve, poor fit].
In the case of `Cc1cc2nc(-c3ccc(SCC(=O)Nc4ccc(S(=O)(=O)NC5CC5)cc4)nc3)[nH]c2cc1C`, the Potency is reported as active: 4.47 µM.
With `CC1=NN(C(=O)c2c(Br)cnn2C)C(O)(C(F)(F)F)C1` (stereo not drawn) the Potency was inconclusive: 25.1 µM [activator, single point].
In the case of `Cc1ccc(C)c(NC(=O)c2ccc3c(c2)CCN3S(=O)(=O)c2ccccc2)c1`, the “activity change, negative = inhibition” value is reported as inactive: -17.7% [at 46.1 µM].
With `COC(=O)c1cc(NC(=O)c2cccc(C(F)(F)F)c2)c(=O)oc1C/C=N/OCc1cccc(Cl)c1Cl` the Potency was inconclusive: 35.5 µM [inhibitor, partial curve, poor fit].
On the % scale 0 is the no-effect control and ±100 the full control effect; potency means the concentration at half of the fitted maximal effect.
